No constants are given. Whether binding was seen depends on the method and setting. Binding seen in cells or lysates may run through a third protein. Some binding calls cover weakened binding; strength is not graded here.
Tests used:
[1] = target: GST-cath-D/52K (human) (UniProt P07339); assay: GST pull-down competition, as summed up in the discussion
[2] = target: GST-cath-D/52K (human) (UniProt P07339); assay: GST pull-down competition, increasing peptide; competitor of labelled LRP1β (1-476)

By UniProt entry, the sequences of proteins in these tests, tags left out. Residues count along the entry.
UniProt P07339, residues 21-412: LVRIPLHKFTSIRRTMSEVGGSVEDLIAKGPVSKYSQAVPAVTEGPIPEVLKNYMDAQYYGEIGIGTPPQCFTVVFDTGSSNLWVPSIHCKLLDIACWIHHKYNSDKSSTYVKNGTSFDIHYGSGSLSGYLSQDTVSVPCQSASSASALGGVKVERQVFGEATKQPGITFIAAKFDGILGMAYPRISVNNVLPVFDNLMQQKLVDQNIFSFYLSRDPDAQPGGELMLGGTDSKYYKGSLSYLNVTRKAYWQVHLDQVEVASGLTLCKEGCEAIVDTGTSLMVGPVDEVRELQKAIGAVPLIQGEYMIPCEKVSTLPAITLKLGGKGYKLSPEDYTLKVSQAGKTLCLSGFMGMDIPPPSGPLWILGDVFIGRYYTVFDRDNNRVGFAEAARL

binding [1]: binds
binding [2]: binds
B1: 49-mer (349-397) LRP1 peptide (peptide)
peptide: CRCLPGFLGDRCQYRQCSGYCENFGTCQMAADGSRQCRCTAYFEGSRCE

Source: EP2045266A1, “Methods for treating and diagnosing a cancer secreting cath-D or Alzheimer's disease” (priority 2007, dated 2009)
